Test results as given in PMC11758221 (ACS Central Science, 2024).

Assays:
[1] = Circular dichroism spectroscopy, secondary structure and helicity; assay type: physicochemical; conditions: 50 μM peptide in 30% trifluoroethanol in aqueous buffer (100 mM NaF, 10 mM KH2PO4 pH 7.5), 25 °C; for calculated helicity (α-helix percentage, Hα): CD, averaged from 3 scans, Luo-Baldwin formula
[2] = general procedure: Fmoc solid-phase peptide synthesis; Rink Amide ProTide resin; HBTU/HOBt, DIPEA; conditions: whole synthesis, scale 0.1 mmol
[3] = general procedure: Fmoc solid-phase peptide synthesis; Rink Amide ProTide resin (0.6 mmol/g); 2-chlorotrityl-hydrazino resin (0.76 mmol/g) for cyclic peptide precursor; HBTU/HOBt, DIPEA

In the case of `CC[C@H](C)[C@H](NC(=O)[C@H](CCCCN)NC(=O)[C@@H](NC(=O)[C@H](CCC(N)=O)NC(=O)[C@@H](N)CCCNC(=N)N)[C@@H](C)CC)C(=O)N[C@@H](Cc1c[nH]c2ccccc12)C(=O)N[C@@H](Cc1ccccc1)C(=O)N[C@@H](CCC(N)=O)C(=O)N[C@@H](CC(N)=O)C(=O)N[C@@H](CCCNC(=N)N)C(=O)N[C@@H](CCCNC(=N)N)C(=O)N[C@@H](CCSC)C(=O)N[C@@H](CCCCN)C(=O)N[C@@H](Cc1c[nH]c2ccccc12)C(=O)N[C@@H](CCCCN)C(=O)N[C@@H](CCCCN)C(N)=O` [penetratin, reference compound], the “calculated helicity (α-helix percentage, Hα)” value [1] is reported as 61%.

For `N=C(N)NCCC[C@H](NC(=O)CNC(=O)[C@@H](N)Cc1ccc(O)cc1)C(=O)N[C@@H](CCCCN)C(=O)N[C@@H](CCCCN)C(=O)N[C@@H](CCCNC(=N)N)C(=O)N[C@@H](CCCNC(=N)N)C(=O)N[C@@H](CCC(N)=O)C(=O)N[C@@H](CCCNC(=N)N)C(=O)N[C@@H](CCCNC(=N)N)C(=O)N[C@@H](CCCNC(=N)N)C(=O)N1CCC[C@H]1C(=O)N[C@@H](CCC(N)=O)C(N)=O` [TAT, reference compound], the “secondary structure by CD spectrum” value [1] was “unstructured in solution”.

“PEPTIDE1{G.L.R.K.R.L.R.K.F.R.N.K.I.K.E.K.[am]}$$$$V2.0” gave an isolated mass [2] of 104 mg and an isolated yield [2] of 48%.

“PEPTIDE1{Y.G.R.K.K.R.R.Q.R.R.R.P.Q.[am]}$$$$V2.0” showed an isolated mass ([3]; whole synthesis) of 71 mg and an isolated yield ([3]; whole synthesis, scale of the general procedure 0.1 mmol) of 40%.

With “GLRKRLRKFRNKIKEK-NH2 [sC18, reference compound]” the “calculated helicity (α-helix percentage, Hα)” value [1] was 70%.

Compound “PEPTIDE1{R.Q.I.K.I.W.F.Q.N.R.R.M.K.W.K.K.[CysSNBD].[am]}$$$$V2.0” has a conjugation yield ([3]; conjugation step) of 35%.

Compound KLYACSRYL has an isolated mass [2] of 50 mg and an isolated yield [2] of 45%.

For some of these results: Where a sequence shows no end group, the ends are not given. For some of these results: Some peptides are written in HELM: one residue between dots, names in brackets for other building blocks, links after the first $. Where no end group is shown, it is not given here.
